Taken from: PubChem BioAssay AID743458 (Peter MacCallum Cancer Centre, 2014)
Test: 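Identify genes whose loss lifts vorinostat resistance in colon cancer cells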 (follow-up of hits). System: human HCT116-VR colon cancer cells made resistant to vorinostat. Knock-down reagent: single siRNA or pool against human genes, 25 nM per single siRNA. Timing: about 72 h after transfection, including 24 h of drug. Challenge: vorinostat, 2.5 µM final, for 24 h. Read-out: 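Cell viability by fluorescence and apoptosis by caspase 3/7 luminescence under vorinostat, background-corrected, averaged across two plate copies and given as fold change versus mock transfection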. Scale: viability relative to mock: higher = more living cells than mock; caspase activity relative to mock: higher = more apoptosis than mock. Call rule: 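An siRNA counts as active if classed as reduced viability or as caspase activation, otherwise inactive; a hit class needed wells that remained healthy in the absence of drug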.
In all, the deposit lists about 1,800 reagents; below is a part drawn at random. 732 of them (41%) count as active. 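Calls are per siRNA reagent; a gene was deemed confirmed only if most of its four siRNAs scored.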 The numbers tell different reagents against one gene apart.

How did the screen score SPMAP2 #1?
viability relative to mock: 0.86; caspase activity relative to mock: 3.09; viability hit class: no change; caspase hit class: caspase activation; Outcome: active

For SPMAP2 #2, how do the results read?
viability relative to mock: 0.84; caspase activity relative to mock: 1.25; viability hit class: no change; caspase hit class: no change; Outcome: inactive

How did the screen score SPMAP2 #3?
viability relative to mock: 0.79; caspase activity relative to mock: 1.67; viability hit class: no change; caspase hit class: no change; Outcome: inactive

How did the screen score SPMAP2 #4?
viability relative to mock: 0.93; caspase activity relative to mock: 1.97; viability hit class: no change; caspase hit class: no change; Outcome: inactive

Which result is listed for C1orf52 #1?
viability relative to mock: 0.7; caspase activity relative to mock: 2.84; viability hit class: no change; caspase hit class: caspase activation; Outcome: active

For C1orf52 #2, what does the deposit list?
viability relative to mock: 0.72; caspase activity relative to mock: 2.21; viability hit class: no change; caspase hit class: no change; Outcome: inactive

What did the screen give for C1orf52 #3?
viability relative to mock: 0.3; caspase activity relative to mock: 3.27; viability hit class: reduced viability; caspase hit class: caspase activation; Outcome: active

Which result is listed for C1orf52 #4?
viability relative to mock: 0.74; caspase activity relative to mock: 1.68; viability hit class: no change; caspase hit class: no change; Outcome: inactive

How did the screen score CBX7 #1?
viability relative to mock: 1; caspase activity relative to mock: 2.17; viability hit class: no change; caspase hit class: no change; Outcome: inactive

How did the screen score CBX7 #2?
viability relative to mock: 0.63; caspase activity relative to mock: 4.38; viability hit class: no change; caspase hit class: caspase activation; Outcome: active

For CBX7 #3, what was measured?
viability relative to mock: 0.61; caspase activity relative to mock: 2.83; viability hit class: no change; caspase hit class: caspase activation; Outcome: active

How did the screen score CBX7 #4?
viability relative to mock: 0.8; caspase activity relative to mock: 1.8; viability hit class: no change; caspase hit class: no change; Outcome: inactive
